The assay addresses Focal adhesion kinase 1 (human (endogenous in HCT-116)) (UniProt Q05397). Put plainly: co-IP; anti-FAK IP from lysate of EGF-stimulated HCT-116 cells, Western blot for zyxin, nesprin-1 and desmoplakin; IgG control. (In general: In western blotting, separated proteins are transferred to a membrane and probed.)

Sequences of proteins named here, by UniProt entry; tags and fusion partners are left off.
UniProt Q05397: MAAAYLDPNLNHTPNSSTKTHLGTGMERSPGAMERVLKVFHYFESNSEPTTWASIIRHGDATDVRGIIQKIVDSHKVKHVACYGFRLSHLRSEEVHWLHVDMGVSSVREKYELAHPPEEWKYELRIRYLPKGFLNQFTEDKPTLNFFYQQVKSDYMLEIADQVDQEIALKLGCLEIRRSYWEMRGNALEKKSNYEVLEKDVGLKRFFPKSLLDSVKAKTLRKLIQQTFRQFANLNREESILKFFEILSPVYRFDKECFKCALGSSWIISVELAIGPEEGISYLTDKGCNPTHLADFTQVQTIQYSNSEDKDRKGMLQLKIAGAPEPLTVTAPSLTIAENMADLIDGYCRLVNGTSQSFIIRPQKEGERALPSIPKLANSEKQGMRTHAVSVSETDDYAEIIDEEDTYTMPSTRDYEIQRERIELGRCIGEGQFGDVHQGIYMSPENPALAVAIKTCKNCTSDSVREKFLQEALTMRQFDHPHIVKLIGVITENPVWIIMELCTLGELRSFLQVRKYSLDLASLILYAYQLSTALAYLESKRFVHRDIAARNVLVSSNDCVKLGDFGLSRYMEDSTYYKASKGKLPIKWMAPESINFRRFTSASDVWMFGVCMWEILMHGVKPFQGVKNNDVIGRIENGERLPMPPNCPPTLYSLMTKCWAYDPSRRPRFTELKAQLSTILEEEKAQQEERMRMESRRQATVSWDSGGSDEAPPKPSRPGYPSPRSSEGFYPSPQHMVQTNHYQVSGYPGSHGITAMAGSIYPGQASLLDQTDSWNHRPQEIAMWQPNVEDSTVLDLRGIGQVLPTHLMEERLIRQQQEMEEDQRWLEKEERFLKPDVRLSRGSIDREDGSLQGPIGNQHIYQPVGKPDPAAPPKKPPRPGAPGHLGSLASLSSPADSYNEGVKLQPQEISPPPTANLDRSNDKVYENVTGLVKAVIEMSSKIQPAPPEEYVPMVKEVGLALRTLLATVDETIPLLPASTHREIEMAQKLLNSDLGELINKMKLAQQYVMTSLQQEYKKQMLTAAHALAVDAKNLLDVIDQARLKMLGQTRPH

No constants are given. Whether binding was seen depends on the method and setting. Binding seen in cells or lysates may run through a third protein. Some results given as binding are weak or reduced against the parent protein; the word gives no strength.

B1: Zyxin (protein, UniProt Q15942 1-572)
chain: MAAPRPSPAISVSVSAPAFYAPQKKFGPVVAPKPKVNPFRPGDSEPPPAPGAQRAQMGRVGEIPPPPPEDFPLPPPPLAGDGDDAEGALGGAFPPPPPPIEESFPPAPLEEEIFPSPPPPPEEEGGPEAPIPPPPQPREKVSSIDLEIDSLSSLLDDMTKNDPFKARVSSGYVPPPVATPFSSKSSTKPAAGGTAPLPPWKSPSSSQPLPQVPAPAQSQTQFHVQPQPQPKPQVQLHVQSQTQPVSLANTQPRGPPASSPAPAPKFSPVTPKFTPVASKFSPGAPGGSGSQPNQKLGHPEALSAGTGSPQPPSFTYAQQREKPRVQEKQHPVPPPAQNQNQVRSPGAPGPLTLKEVEELEQLTQQLMQDMEHPQRQNVAVNELCGRCHQPLARAQPAVRALGQLFHIACFTCHQCAQQLQGQQFYSLEGAPYCEGCYTDTLEKCNTCGEPITDRMLRATGKAYHPHCFTCVVCARPLEGTSFIVDQANRPHCVPDYHKQYAPRCSVCSEPIMPEPGRDETVRVVALDKNFHMKCYKCEDCGKPLSIEADDNGCFPLDGHVLCRKCHTARAQT
With B1, the binding entry is “binds”.

For the origin of these results see paper PMC6733923.
